From publication doi:10.1101/257543 (bioRxiv, 2018)
Results are given in words; binding and its absence hold for the method and conditions named.

Biological target: T1, SERK3 cytoplasmic domain (residues 250-615) (A. thaliana) (UniProt Q94F62)
T1 sequence: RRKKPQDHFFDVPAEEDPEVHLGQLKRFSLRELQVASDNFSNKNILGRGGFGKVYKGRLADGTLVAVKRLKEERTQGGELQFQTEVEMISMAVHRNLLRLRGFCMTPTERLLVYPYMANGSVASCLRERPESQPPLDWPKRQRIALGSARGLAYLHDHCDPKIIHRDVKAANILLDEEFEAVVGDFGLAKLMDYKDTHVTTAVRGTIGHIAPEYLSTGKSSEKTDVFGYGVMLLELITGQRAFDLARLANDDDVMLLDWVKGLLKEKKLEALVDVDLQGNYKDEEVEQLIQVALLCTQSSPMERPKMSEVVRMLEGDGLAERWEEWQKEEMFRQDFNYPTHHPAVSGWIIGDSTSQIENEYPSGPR
Assay: condition: ~200 uM injected into ~20 uM SERK3 kinase domain

binding: no binding
Substance: BIR2 cytosolic domain (A. thaliana) (domain or fragment)
